Measured values published in US9375000B2, “Pesticidal arylpyrrolidines” (Bayer Intellectual Property GmbH, priority 2011, dated 2016).
Some of these results come from one statement about several compounds together.

Tests used:
Type in all cases: in vivo
[1] = system: adult engorged female ticks (Boophilus microplus); assay: Boophilus microplus (injection); conditions: application rate 20 μg/animal, after 7 days
Ctenocephalides felis = assay: Test against Ctenocephalides felis (CTECFE), blood feeding; conditions: application rate 100 ppm in cattle blood; after 2 days
Experimental: (§1) Solvent: dimethyl sulfoxide
To produce a suitable preparation of active compound, 10 mg of active compound are dissolved in 0.5 ml solvent, and the concentrate is diluted with cattle blood to the desired concentration. Approximately 20 adult unfed (Ctenocepahlides felis) are placed in flea chambers. The blood chamber, sealed with parafilm on the bottom, are filled with cattle blood supplied with compound solution and placed on top of the flea chamber, so that the fleas are able to suck the blood. The blood chamber is heated to 37° C. whereas the flea chamber is kept at room temperature.
After 2 days mortality in % is determined. 100% means that all the fleas have been killed; 0% means that none of the fleas have been killed.

[2] = system: Lucilia cuprina 1st instar larvae; assay: Test against Lucilia cuprina larvae; conditions: application rate 100 ppm; after 48 hrs
Experimental: as §1
10 mg active compound are dissolve in 0.5 mL dimethyl sulfoxide. Serial dilutions are made to obtain the desired rates.
Approximately 20 Lucilia cuprina 1st instar larvae are transferred into a test tube containing 1 cm^3 of minced horse meat and 0.5 ml aqueous dilution of test compound. After 48 hrs percentage of larval mortality are recorded. 100% efficacy=all larvae are killed, […].

Musca domestica = assay: Test against Musca domestica; conditions: application rate 100 ppm; after 2 days
Experimental: as §1
To produce a suitable preparation of active compound, 10 mg of active compound are dissolved in 0.5 ml solvent, and the concentrate is diluted with water to the desired concentration. Prior to the assay, a piece of kitchen sponge is soaked with a mixture of sugar and compound solution and placed into a container. 10 adults (Musca domestica) are placed into the container and closed with a perforated lid. After 2 days mortality in % is determined. 100% means that all the flies have been killed; 0% means that none of the flies have been killed.

CC(=O)NCc1ccc(N2CCC(c3cc(C(F)(F)F)cc(C(F)(F)F)c3)(C(F)(F)F)C2O)cc1C(F)(F)F (mixture of isomers) [A1-56]
100%: activity (mortality; infertile eggs) [1] | activity (mortality) (Ctenocephalides felis) | activity (larval mortality) [2] | activity (mortality) (Musca domestica)

CCC(=O)NCc1ccc(N2CCC(c3cc(C(F)(F)F)cc(C(F)(F)F)c3)(C(F)(F)F)C2O)cc1C(F)(F)F (mixture of isomers) [A1-57]
100%: activity (mortality; infertile eggs) [1] | activity (mortality) (Ctenocephalides felis) | activity (larval mortality) [2] | activity (mortality) (Musca domestica)

O=C(NCc1ccc(N2CCC(c3cc(C(F)(F)F)cc(C(F)(F)F)c3)(C(F)(F)F)C2O)cc1C(F)(F)F)C1CC1 (mixture of isomers) [A1-60]
100%: activity (mortality; infertile eggs) [1] | activity (mortality) (Ctenocephalides felis) | activity (larval mortality) [2] | activity (mortality) (Musca domestica)

O=C(NCc1ccc(N2CCC(c3cc(Cl)cc(Cl)c3)(C(F)(F)F)C2O)cc1Br)C1CC1 (mixture of isomers) [A1-110]
100%: activity (mortality; infertile eggs) [1] | activity (mortality) (Ctenocephalides felis) | activity (larval mortality) [2]

O=C(NCc1ccc(N2CCC(c3cc(Cl)c(Cl)c(Cl)c3)(C(F)(F)F)C2O)cc1I)C1CC1 (mixture of isomers) [A1-176]
100%: activity (mortality; infertile eggs) [1] | activity (larval mortality) [2]

CS(=O)(=O)CC(=O)NCc1ccc(N2CCC(c3cc(C(F)(F)F)cc(C(F)(F)F)c3)(C(F)(F)F)C2O)nc1Br (mixture of isomers) [A3-165]
100%: activity (mortality; infertile eggs) [1] | activity (mortality) (Ctenocephalides felis) | activity (larval mortality) [2] | activity (mortality) (Musca domestica)

O=C(NCc1ccc(N2CCC(c3cc(C(F)(F)F)cc(C(F)(F)F)c3)(C(F)(F)F)C2O)cc1Cl)C1CC1 (stereo not drawn) [A1-27, N-(4-{3-[3,5-bis(trifluoromethyl)phenyl]-2-hydroxy-3-(trifluoromethyl)pyrrolidin-1-yl}-2-chlorobenzyl)cyclopropanecarboxamide]
100%: activity (mortality; infertile eggs) [1]

CC(=O)NCc1ccc(N2CCC(c3cc(Cl)cc(Cl)c3)(C(F)(F)F)C2O)cc1C(F)(F)F (stereo not drawn) [A1-34]
100%: activity (mortality; infertile eggs) [1] | activity (mortality) (Ctenocephalides felis) | activity (larval mortality) [2] | activity (mortality) (Musca domestica)

CCC(=O)NCc1ccc(N2CCC(c3cc(Cl)cc(Cl)c3)(C(F)(F)F)C2O)cc1C(F)(F)F (stereo not drawn) [A1-35, N-{4-[3-(3,5-dichlorophenyl)-2-hydroxy-3-(trifluoromethyl)pyrrolidin-1-yl]-2-(trifluoromethyl)benzyl}propanamide]
100%: activity (mortality; infertile eggs) [1]

O=C(CC(F)(F)F)NCc1ccc(N2CCC(c3cc(Cl)cc(Cl)c3)(C(F)(F)F)C2O)cc1C(F)(F)F (stereo not drawn) [A1-40]
100%: activity (mortality; infertile eggs) [1] | activity (mortality) (Ctenocephalides felis) | activity (larval mortality) [2] | activity (mortality) (Musca domestica)

CC(=O)NCc1ccc(N2CCC(c3cc(C(F)(F)F)cc(C(F)(F)F)c3)(C(F)(F)F)C2O)cc1Br (stereo not drawn) [A1-216]
100%: activity (mortality; infertile eggs) [1] | activity (mortality) (Ctenocephalides felis) | activity (larval mortality) [2] | activity (mortality) (Musca domestica)

CCC(=O)NCc1ccc(N2CCC(c3cc(C(F)(F)F)cc(C(F)(F)F)c3)(C(F)(F)F)C2O)cc1Br (stereo not drawn) [A1-217]
100%: activity (mortality; infertile eggs) [1] | activity (mortality) (Ctenocephalides felis) | activity (larval mortality) [2] | activity (mortality) (Musca domestica)

CCC(=O)NCc1ccc(N2CCC(c3cc(Br)cc(Br)c3)(C(F)(F)F)C2O)cc1C(F)(F)F (stereo not drawn) [A1-250]
100%: activity (mortality; infertile eggs) [1] | activity (mortality) (Ctenocephalides felis) | activity (larval mortality) [2]

O=C(NCc1ccc(N2CCC(c3cc(F)cc(C(F)(F)F)c3)(C(F)(F)F)C2O)cc1C(F)(F)F)C1CC1 (stereo not drawn) [A1-319]
100%: activity (mortality; infertile eggs) [1] | activity (mortality) (Ctenocephalides felis) | activity (larval mortality) [2] | activity (mortality) (Musca domestica)

O=C(NCc1ccc(N2CCC(c3cc(Cl)cc(Cl)c3F)(C(F)(F)F)C2O)cc1C(F)(F)F)C1CC1 (stereo not drawn) [A1-409, N-{4-[3-(3,5-dichloro-2-fluorophenyl)-2-hydroxy-3-(trifluoromethyl)pyrrolidin-1-yl]-2-(trifluoromethyl)benzyl}cyclopropanecarboxamide]
100%: activity (mortality; infertile eggs) [1]

CCC(=O)NCc1ccc(N2CCC(c3cc(Cl)c(F)c(Cl)c3F)(C(F)(F)F)C2O)cc1Br (stereo not drawn) [A1-430]
100%: activity (mortality; infertile eggs) [1] | activity (mortality) (Ctenocephalides felis) | activity (larval mortality) [2] | activity (mortality) (Musca domestica)

O=C(NCc1ccc(N2CCC(c3cc(Cl)c(F)c(Cl)c3F)(C(F)(F)F)C2O)cc1Br)C1CC1 (stereo not drawn) [A1-433]
100%: activity (mortality; infertile eggs) [1] | activity (mortality) (Ctenocephalides felis) | activity (larval mortality) [2] | activity (mortality) (Musca domestica)

CC(=O)NCc1ccc(N2CCC(c3cc(Cl)c(Cl)c(Cl)c3)(C(F)(F)F)C2O)nc1C(F)(F)F (stereo not drawn) [A3-12]
100%: activity (mortality; infertile eggs) [1] | activity (mortality) (Ctenocephalides felis) | activity (larval mortality) [2] | activity (mortality) (Musca domestica)

CCC(=O)NCc1ccc(N2CCC(c3cc(Cl)c(Cl)c(Cl)c3)(C(F)(F)F)C2O)nc1C(F)(F)F (stereo not drawn) [A3-13, N-({6-[2-hydroxy-3-(3,4,5-trichlorophenyl)-3-(trifluoromethyl)-pyrrolidin-1-yl]-2-(trifluoromethyl)pyridin-3-yl}methyl)propanamide]
100%: activity (mortality; infertile eggs) [1]

CCC(=O)NCc1ccc(N2CCC(c3cc(C(F)(F)F)cc(C(F)(F)F)c3)(C(F)(F)F)C2O)nc1C(F)(F)F (stereo not drawn) [A3-24]
100%: activity (mortality; infertile eggs) [1] | activity (mortality) (Ctenocephalides felis) | activity (larval mortality) [2] | activity (mortality) (Musca domestica)

CCc1nc(N2CCC(c3cc(C(F)(F)F)cc(C(F)(F)F)c3)(C(F)(F)F)C2O)ccc1CNC(=O)C1CC1 (stereo not drawn) [A3-137]
100%: activity (mortality; infertile eggs) [1] | activity (mortality) (Ctenocephalides felis) | activity (larval mortality) [2] | activity (mortality) (Musca domestica)

O=C(NCc1cc(F)c(N2CCC(c3cc(C(F)(F)F)cc(C(F)(F)F)c3)(C(F)(F)F)C2O)nc1Cl)C1CC1 (stereo not drawn) [A3-381]
100%: activity (mortality; infertile eggs) [1] | activity (mortality) (Ctenocephalides felis) | activity (larval mortality) [2] | activity (mortality) (Musca domestica)

CCC(=O)NCc1cnc(N2CCC(c3cc(C(F)(F)F)cc(C(F)(F)F)c3)(C(F)(F)F)C2O)cc1C(F)(F)F (stereo not drawn) [A5-24]
100%: activity (mortality; infertile eggs) [1] | activity (mortality) (Ctenocephalides felis) | activity (larval mortality) [2] | activity (mortality) (Musca domestica)

O=C(NCc1cnc(N2CCC(c3cc(C(F)(F)F)cc(C(F)(F)F)c3)(C(F)(F)F)C2O)cc1C(F)(F)F)C1CC1 (stereo not drawn) [A5-27, N-{[6-{3-[3,5-bis(trifluoromethyl)phenyl]-2-hydroxy-3-(trifluoromethyl)pyrrolidin-1-yl}-4-(trifluoromethyl)pyridin-3-yl]methyl}cyclopropanecarboxamide]
100%: activity (mortality; infertile eggs) [1]

O=C(CC(F)(F)F)NCc1cnc(N2CCC(c3cc(C(F)(F)F)cc(C(F)(F)F)c3)(C(F)(F)F)C2O)cc1C(F)(F)F (stereo not drawn) [A5-29]
100%: activity (mortality; infertile eggs) [1] | activity (mortality) (Ctenocephalides felis) | activity (larval mortality) [2] | activity (mortality) (Musca domestica)

O=C(NCc1ccc(N2CCC(c3cc(C(F)(F)F)cc(C(F)(F)F)c3)(C(F)(F)F)C2=O)cc1Cl)C1CC1 (stereo not drawn) [B1-27]
100%: activity (mortality; infertile eggs) [1]

O=C(NCc1ccc(N2CCC(c3cc(Cl)c(Cl)c(Cl)c3)(C(F)(F)F)C2=O)nc1C(F)(F)F)C1CC1 (stereo not drawn) [B3-16]
100%: activity (mortality; infertile eggs) [1] | activity (larval mortality) [2]

O=C(NCc1ccc(N2CC(c3cc(C(F)(F)F)cc(C(F)(F)F)c3)(C(F)(F)F)CC2=O)nc1Cl)C1CC1 (stereo not drawn) [C1-27]
100%: activity (mortality; infertile eggs) [1] | activity (mortality) (Ctenocephalides felis) | activity (larval mortality) [2]

CCC(=O)NCc1ccc(N2CC(c3cc(Cl)c(Cl)c(Cl)c3)(C(F)(F)F)CC2=O)cc1C(F)(F)F (stereo not drawn) [C1-46, N-{4-[2-oxo-4-(3,4,5-trichlorophenyl)-4-(trifluoromethyl)pyrrolidin-1-yl]-2-(trifluoromethyl)benzyl}propanamide]
100%: activity (mortality; infertile eggs) [1]

CC(NC(=O)C1CC1)c1ccc(N2CC(c3cc(C(F)(F)F)cc(C(F)(F)F)c3)(C(F)(F)F)CC2=O)cc1 (stereo not drawn) [C2-27-b]
100%: activity (mortality; infertile eggs) [1] | activity (mortality) (Ctenocephalides felis) | activity (larval mortality) [2] | activity (mortality) (Musca domestica)

O=C(NCc1ccc(N2CC(c3cc(Cl)c(Cl)c(Cl)c3)(C(F)(F)F)CC2=O)nc1C(F)(F)F)C1CC1 (stereo not drawn) [C3-16]
100%: activity (mortality; infertile eggs) [1] | activity (larval mortality) [2]

O=C(NCc1ccc(N2CC(c3cc(C(F)(F)F)cc(C(F)(F)F)c3)(C(F)(F)F)CC2=O)nc1C(F)(F)F)C1CC1 (stereo not drawn) [C3-27]
100%: activity (mortality; infertile eggs) [1] | activity (larval mortality) [2]
